From patent US20080194528A1, “Pharmaceutical compositions comprising organopolysiloxane elastomers and solubilized bioactive compounds” (GALDERMA RESEARCH AND DEVELOPMENT, priority 2005, published 2008)
The name of at least one read-out is uncertain.

Assay: Optimization of the active-phase solubilization time
Assay type: physicochemical
Settings: stirring time, active phases of compositions 3, 4, 5

CCCc1cc(C(O)(CC)CC)ccc1-c1cc(OCc2ccc(CO)c(CO)c2)ccc1CC [compound 3, {4-[6-ethyl-4′-(1-ethyl-1-hydroxypropyl)-2′-propylbiphenyl-3-yloxymethyl]-2-hydroxymethylphenyl}methanol]
Solubilization of the active agent in the active phases: well solubilized after 15 minutes of stirring
